Measurements published in patent publication US11484533B2, “Methods and compositions for treating obesity” (UNIVERSITY OF SOUTH CAROLINA, priority 2019, dated 2022).

System: F4/80+ cells isolated from adipose tissue
Assay: miR microarray in F4/80+ adipose tissue macrophages of treated DIO mice
Type: in vivo, C57BL/6J male mice
Conditions: F4/80+ ATMs
Protocol: Epididymal fat pads of mice were excised and placed in gentleMACS™ C Tubes (Miltenyi Biotec, San Diego, Calif.) containing digestion medium (HBSS, 2 mg/ml collagenase (Sigma-Aldrich, St. Louis, Mo.) and 2% BSA), followed by homogenization utilizing a gentleMACS™ Dissociator (Miltenyi Biotec). After incubation at 37° C. for 30 minutes with gentle shaking, the cell suspension was filtered through a 100-μm filter and then spun at 300 g for 5 minutes to separate floating adipocytes from the stromal vascular fraction (SVF) pellet. Isolation of F4/80+ ATMs from the SVF was performed using EasySep™ FITC Positive Selection Kit (STEMCELL Technologies, Vancouver, B.C.). FITC-anti-F4/80 antibodies (Clone: BM8, BioLegend®, San Diego, Calif.) were used to label the cells for positive selection. Isolated cells were lysed for RNA analysis in QIAzol (Qiagen, Valencia, Calif.) and stored at −80° C. until RNA purification.
The unique expression profile of miRs was assessed in F4/80+ cells isolated from adipose tissue by Affymetrix GeneChip® miR 3.0 array platform. The array contains 3100 murine-specific probes from Sanger miRBase. Total RNA was 3′-end labeled with FlashTag™ Biotin HSR hybridization technique (Genisphere, Hatfield, Pa.) and was carried out according to the manufacturer's instructions (Affymetrix®, Santa Clara, Calif.). Microarray CEL files were assessed for quality, normalized, and converted to CHP files by using the algorithm RMA-DABG in the software Affymetrix® Expression Console™ Version 1.4.1.46. CHP files were further analyzed using Affymetrix® Transcriptome Analysis Console™ Version 3.1.0.5 for annotation and differential expression. Expression of Log2 fold change (Log2 FC) was calculated and mean normalized expression was visualized in the form of a heat-map. miRs were considered differentially expressed if the Log2 FC was greater than +/−1.95.

Cc1c(C(=O)NN2CCCCC2)nn(-c2ccc(Cl)cc2Cl)c1-c1ccc(Cl)cc1 [SR141716A, 5-(4-chlorophenyl)-1-(2,4-dichlorophenyl)-4-methyl-N-piperidin-1-ylpyrazole-3-carboxamide] was tested, and the “number of miRs over-expressed (≥ 1.95 log2 fold-change)” value (HFD+SR vs HFD+Veh) was 18, the “number of miRs under-expressed (≥ 1.95 log2 fold-change)” value (HFD+SR vs HFD+Veh) was 110 and the “number of miRs significantly down-regulated” value (HFD+SR vs HFD-PFSR) was 109. The “number of miRs significantly up-regulated” value (HFD+SR vs HFD-PFSR) was 11.
